Experimental data as given in paper PMC9224307.
These are yes or no findings as the source states them, for the method shown. Binding seen in cells or lysates may run through a third protein. These calls come from enrichment with a bait or labelling near it, and not all partners need be listed.

Protein sequences, listed by entry. Tags and fused reporters are not part of them. Lines headed by an entry give the natural chain unless they say otherwise; changes in a name come on top.
UniProt Q99757: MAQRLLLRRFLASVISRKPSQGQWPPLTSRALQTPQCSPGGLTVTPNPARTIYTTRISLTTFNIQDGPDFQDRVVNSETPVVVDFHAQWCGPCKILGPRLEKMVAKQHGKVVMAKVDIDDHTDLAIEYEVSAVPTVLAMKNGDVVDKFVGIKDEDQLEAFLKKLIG
UniProt Q15286: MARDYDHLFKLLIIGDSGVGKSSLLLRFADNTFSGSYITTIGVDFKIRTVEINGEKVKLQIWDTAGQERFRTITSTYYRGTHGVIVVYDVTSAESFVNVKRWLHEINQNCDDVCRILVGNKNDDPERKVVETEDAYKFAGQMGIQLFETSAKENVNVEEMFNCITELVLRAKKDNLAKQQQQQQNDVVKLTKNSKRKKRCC

Target: FLAG-tagged full-length (FL) TRX2 (mitochondrial thioredoxin 2) (human) (UniProt Q99757)
Test: affinity purification with mass spectrometry; HCT116 transfected with FLAG-TRX2 or pcDNA3.1+; lysate in nondenaturing RIPA buffer, anti-FLAG magnetic beads overnight at 4 °C, washed with PBST; silver-stained bands specific to FLAG-TRX2 excised, LC-MS/MS

binding: binds
Substance: Rab35 (endogenous) (from UniProt Q15286 1-201)
